The values that follow come from article PMC8965321.

B1: single-strand binding protein (SSB) of Lactococcus lactis IL1403 (protein, UniProt Q9CDM9 1-166)
chain: MINNVVLVGRITRDPELRYTPQNQAVATFSLAVNRQFKNANGEREADFINCVIWRQQAENLANWAKKGALIGVTGRIQTRNYENQQGQRVYVTEVVADSFQMLESRSAREGMGGGTSAGSYSAPSQSTNNTPRPQTNNNNATPNFGRDADPFGSSPMEISDDDLPF
B2: DnaJ of Lactococcus lactis IL1403 (protein, UniProt P35514 1-379)
chain: MNNTEYYERLGVDKNASQDEIKKAYRKMSKKYHPDLNKEEGAEEKYKEVQEAYETLSDEQKRAAYDQYGEAGANGGFGGGGFGGASGFSGFGGGSGGFGGFEDIFSSFFGGGGAQVNPNAPRQGDDLQYRINLKFEEAIFGVEKQVKYNREELCHTCGGSGAKAGTHPETCHKCGGRGQINVVRDTPLGRMQTQVTCDVCNGTGKEIKEKCETCHGSGHEKVAHTVKVTVPAGVETGQKMRLQGQGDAGVNGGPYGDLYVVFQVEASDKFERDGAEIYYKMPMDFVQAALGDEIEVPTVHGNVKLKIPAGTQTGANFRLKGKGAPKLRGSGNGDQYVIINIVTPKNLNQAQKEALQAFAKASGVEVSGSGKKGFFDKFK
B3: topoisomerase I of Lactococcus lactis IL1403 (enzyme, UniProt Q9CG80 1-710)
chain: MPTSTKSKTKTTTKKKTTRKRVTPGKNLVIVESPAKAKTIEKYLGRNYKVVASVGHIRDLKKSTMSVDIENDYEPQYINIRGKAPLINSLKKEAKAAKAVYLASDPDREGEAISWHLAHILNLPLEEKNRVVFNEITKDAVKNAFKEPRQIDVDLVDAQQARRVLDRLVGYSISPILWKKVKKGLSAGRVQSIALKLIVDRENEINAFIPEEYWSIDGEFKKGTKKFKASFWGIDGKKHPLKTNEDVIKVMERLDGPDFNVDKVEKKERRRNAPLPYTTSSMQQDAANKLNFRTRKTMMVAQQLYEGLTLGSQGHQGLITYMRTDSTRISPVAQSAAHNYIADQFGEKYSKHGSKVKNASGAQDAHEAIRPSNVFNTPDAIAKYLDKDQLKLYTLIWNRFVASQMVAAIFDTVKVNLSQNGVIFIANGSQVKFDGYLRIYNDSDKSNMLPEMEENETVKKANVKPEQHFTQPPARYSEATLIKTLEENGVGRPSTYAPTLETIQKRYYVRLSAKRFEPTELGEIVNKLIVEFFPNIVNTEFTAEMEKDLDEVEEGKRQWIEVVDQFYKPFAKELENAEEGMEKIQIKDEPAGFDCDVCGSPMVIKLGRFGKFYACSNFPDCRNTKAIVKEIGVKCPLCHEGNIIERKTKKNRIFYGCDRYPDCEFTSWDKPIGRDCPKSGHFLVEKKVRGGGKQVVCSNDECDYQEEKQK

These are yes or no findings as the source states them, for the method shown. In cells and extracts the contact can be indirect. Here binding means that the protein was enriched with, or labelled near, the bait; the list need not be complete.

In this test the target is GP46F13-His tagged protein immobilised on Ni-NTA agarose (bait) (Lactococcus lactis phage vB_Llc_bIBBF13 (F13)). In words: affinity purification with mass spectrometry; GP46F13-His tagged protein immobilised on Ni-NTA agarose; crude lysates of L. lactis IL1403 at 0, 5, 10, 15 min after infection with phage F13 added, overnight at 4°C; washed with 100 volumes of 50 mM Tris-HCl pH 8, 500 mM NaCl, 20 mM imidazole; resin-bound proteins analysed by LC-MS; hits normalized against control resin without tagged GP46F13; only the target purified.
For the molecule B1, the binding result is “binds”. Under B2 stands “binds”; under B3, “binds”.
